Literature values as cited in publication PMC7932937 (Clinical Pharmacokinetics, 2020).

Conditions: in the presence of ritonavir-boosted darunavir ref 32; cited from earlier work

CC(C)c1c(C(=O)Nc2ccccc2)c(-c2ccccc2)c(-c2ccc(F)cc2)n1CC[C@@H](O)C[C@@H](O)CC(=O)O [atorvastatin]
increase in atorvastatin exposure: 200–300%
